Results deposited as PubChem BioAssay AID602196 (INSERM, 2012)
The whole screen tested about 23,000 reagents; shown is an unselected part. Over the whole deposit, 455 (2%) got an active call. 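Active includes both protection and sensitisation; some change values fall well beyond the stated -50 to +50 range.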 Entries without a mark were called inactive. Not all columns of the deposit are shown. Not given: the amount of reagent.

Purpose: 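Modifiers of cisplatin sensitivity in A549 cells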
Cell system: human A549 lung cancer cells
Reagent: siRNA pair against human genes
Time to read-out: 48 h transfection before cisplatin; time from cisplatin to read-out not stated
Conditions: cisplatin at a dose killing half of control-siRNA cells; exact dose and duration not given
Measurement: 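Cisplatin cell death as a shift from the 50% death seen with control siRNA; siRNAs toxic or growth-blocking alone scored 0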
Reading the numbers: two-siRNA summed score (-2 to +2): higher = both siRNAs protect from cisplatin killing; -2 means both sensitise; mean protection from cisplatin (shift in death): higher = protection from cisplatin killing
Rule for the call: 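siRNAs harmful alone (LDH or WST-1) get 0; others get +1 for less and -1 for more cisplatin killing; genes are active when the two siRNAs give the same sign, summing to ±2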
Meaning of the calls: active = both siRNAs shift cisplatin killing the same way; inactive = no consistent shift, or siRNA harmful alone

LOC442575 scored two-siRNA summed score (-2 to +2) = 0; mean protection from cisplatin (shift in death) (%) = 9.2. CHCT1 showed two-siRNA summed score (-2 to +2) = 0; mean protection from cisplatin (shift in death) (%) = 0.5. After knock-down of NEU2, the record shows two-siRNA summed score (-2 to +2) = 0; mean protection from cisplatin (shift in death) (%) = -0.3. For HOXD8, the entry reads two-siRNA summed score (-2 to +2) = 1; mean protection from cisplatin (shift in death) (%) = 9. IRF5 gave two-siRNA summed score (-2 to +2) = 1; mean protection from cisplatin (shift in death) (%) = 20.7. Silencing of CIAO2AP2 came out at: two-siRNA summed score (-2 to +2) = 0; mean protection from cisplatin (shift in death) (%) = 18.6.

Against CCDC136, the values are two-siRNA summed score (-2 to +2) = 1; mean protection from cisplatin (shift in death) (%) = 13.9. After knock-down of LOC146443, the record shows two-siRNA summed score (-2 to +2) = 0; mean protection from cisplatin (shift in death) (%) = 18. For FRS2, the entry reads two-siRNA summed score (-2 to +2) = -1; mean protection from cisplatin (shift in death) (%) = -7.6. Knock-down of MNT came out at: two-siRNA summed score (-2 to +2) = 0; mean protection from cisplatin (shift in death) (%) = -0.3. Depletion of LOC441817 resulted in: two-siRNA summed score (-2 to +2) = 1; mean protection from cisplatin (shift in death) (%) = 9.8. Knock-down of UPK2 gave: two-siRNA summed score (-2 to +2) = 1; mean protection from cisplatin (shift in death) (%) = 11.3.

With knock-down of CHAMP1 the results were two-siRNA summed score (-2 to +2) = 0; mean protection from cisplatin (shift in death) (%) = 10.8. Knock-down of DMBT1 came out at: two-siRNA summed score (-2 to +2) = 0; mean protection from cisplatin (shift in death) (%) = 0.3. Against LOC440441 the deposit lists two-siRNA summed score (-2 to +2) = 1; mean protection from cisplatin (shift in death) (%) = 7.8. After knock-down of LOC389116 the results were two-siRNA summed score (-2 to +2) = 0; mean protection from cisplatin (shift in death) (%) = 5.3. LOC400400 showed two-siRNA summed score (-2 to +2) = 0; mean protection from cisplatin (shift in death) (%) = 3. With knock-down of LOC205251 the results were two-siRNA summed score (-2 to +2) = 1; mean protection from cisplatin (shift in death) (%) = 10.5.

After knock-down of ADAM19, the screen gave two-siRNA summed score (-2 to +2) = -1; mean protection from cisplatin (shift in death) (%) = -4.

5 successive entries already listed:
IRF5 → two-siRNA summed score (-2 to +2) = 1; mean protection from cisplatin (shift in death) (%) = 20.7
CIAO2AP2 → two-siRNA summed score (-2 to +2) = 0; mean protection from cisplatin (shift in death) (%) = 18.6
CCDC136 → two-siRNA summed score (-2 to +2) = 1; mean protection from cisplatin (shift in death) (%) = 13.9
LOC146443 → two-siRNA summed score (-2 to +2) = 0; mean protection from cisplatin (shift in death) (%) = 18
FRS2 → two-siRNA summed score (-2 to +2) = -1; mean protection from cisplatin (shift in death) (%) = -7.6

Additional results follow.
Depletion of LOC390530 came out at: two-siRNA summed score (-2 to +2) = 0; mean protection from cisplatin (shift in death) (%) = 25.2. Silencing of LOC389674 came out at: two-siRNA summed score (-2 to +2) = 0; mean protection from cisplatin (shift in death) (%) = 4.5. For ATP6V0A2, the values are two-siRNA summed score (-2 to +2) = 0; mean protection from cisplatin (shift in death) (%) = 3.6. PHOSPHO2 showed two-siRNA summed score (-2 to +2) = 0; mean protection from cisplatin (shift in death) (%) = 6.6. Against GAD2, the entry reads two-siRNA summed score (-2 to +2) = -1; mean protection from cisplatin (shift in death) (%) = -9.6. After knock-down of DDB1, the record shows two-siRNA summed score (-2 to +2) = 0; mean protection from cisplatin (shift in death) (%) = 8.4.

For LOC440946, the entry reads two-siRNA summed score (-2 to +2) = 0; mean protection from cisplatin (shift in death) (%) = -2.7. LRRC18 showed two-siRNA summed score (-2 to +2) = 1; mean protection from cisplatin (shift in death) (%) = 9.1. For BMP10 the deposit lists two-siRNA summed score (-2 to +2) = -1; mean protection from cisplatin (shift in death) (%) = -0.6. Knock-down of TXNIP gave: two-siRNA summed score (-2 to +2) = 0; mean protection from cisplatin (shift in death) (%) = -7.3. For LOC286355, the values are two-siRNA summed score (-2 to +2) = 0; mean protection from cisplatin (shift in death) (%) = 14.4. For LOC347275, the values are two-siRNA summed score (-2 to +2) = 0; mean protection from cisplatin (shift in death) (%) = 3.6.
